Assay results from the supplement of paper PMC10849652.
The other results are listed elsewhere or left out.

By UniProt entry, the sequences of proteins in these tests, tags left out. Where a name states a change or a piece, a line headed by the entry shows the natural chain unless it says otherwise.
UniProt Q9Y305: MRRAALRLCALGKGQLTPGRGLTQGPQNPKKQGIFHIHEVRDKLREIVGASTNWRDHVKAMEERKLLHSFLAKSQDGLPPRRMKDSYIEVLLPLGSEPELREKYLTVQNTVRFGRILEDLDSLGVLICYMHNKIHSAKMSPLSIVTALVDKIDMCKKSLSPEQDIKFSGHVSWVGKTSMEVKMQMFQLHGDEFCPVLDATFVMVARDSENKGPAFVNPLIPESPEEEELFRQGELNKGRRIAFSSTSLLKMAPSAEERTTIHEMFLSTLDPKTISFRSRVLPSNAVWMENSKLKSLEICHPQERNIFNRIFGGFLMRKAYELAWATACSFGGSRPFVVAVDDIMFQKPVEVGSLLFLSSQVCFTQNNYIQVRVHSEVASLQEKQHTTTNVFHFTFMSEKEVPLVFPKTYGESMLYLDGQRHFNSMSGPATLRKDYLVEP
UniProt Q9NR19, whole entry, looked up: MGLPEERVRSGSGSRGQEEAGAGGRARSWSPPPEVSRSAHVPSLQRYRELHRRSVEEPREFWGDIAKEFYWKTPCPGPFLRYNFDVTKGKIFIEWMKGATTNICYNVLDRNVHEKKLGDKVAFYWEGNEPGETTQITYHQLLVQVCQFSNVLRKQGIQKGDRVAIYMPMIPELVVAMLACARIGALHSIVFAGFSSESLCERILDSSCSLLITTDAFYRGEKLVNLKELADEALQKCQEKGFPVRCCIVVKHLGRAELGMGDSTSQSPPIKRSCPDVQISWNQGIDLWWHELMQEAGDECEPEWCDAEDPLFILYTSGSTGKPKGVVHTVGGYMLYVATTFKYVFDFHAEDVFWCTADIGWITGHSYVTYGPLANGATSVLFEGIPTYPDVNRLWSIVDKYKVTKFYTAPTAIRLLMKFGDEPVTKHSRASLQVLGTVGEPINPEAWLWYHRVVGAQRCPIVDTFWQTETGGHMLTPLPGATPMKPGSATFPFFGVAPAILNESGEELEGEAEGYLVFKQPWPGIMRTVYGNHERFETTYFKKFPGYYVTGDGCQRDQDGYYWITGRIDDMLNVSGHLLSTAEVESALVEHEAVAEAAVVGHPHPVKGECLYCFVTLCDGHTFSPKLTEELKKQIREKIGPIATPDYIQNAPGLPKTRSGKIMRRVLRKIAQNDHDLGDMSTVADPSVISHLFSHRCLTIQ
UniProt Q9NRK6: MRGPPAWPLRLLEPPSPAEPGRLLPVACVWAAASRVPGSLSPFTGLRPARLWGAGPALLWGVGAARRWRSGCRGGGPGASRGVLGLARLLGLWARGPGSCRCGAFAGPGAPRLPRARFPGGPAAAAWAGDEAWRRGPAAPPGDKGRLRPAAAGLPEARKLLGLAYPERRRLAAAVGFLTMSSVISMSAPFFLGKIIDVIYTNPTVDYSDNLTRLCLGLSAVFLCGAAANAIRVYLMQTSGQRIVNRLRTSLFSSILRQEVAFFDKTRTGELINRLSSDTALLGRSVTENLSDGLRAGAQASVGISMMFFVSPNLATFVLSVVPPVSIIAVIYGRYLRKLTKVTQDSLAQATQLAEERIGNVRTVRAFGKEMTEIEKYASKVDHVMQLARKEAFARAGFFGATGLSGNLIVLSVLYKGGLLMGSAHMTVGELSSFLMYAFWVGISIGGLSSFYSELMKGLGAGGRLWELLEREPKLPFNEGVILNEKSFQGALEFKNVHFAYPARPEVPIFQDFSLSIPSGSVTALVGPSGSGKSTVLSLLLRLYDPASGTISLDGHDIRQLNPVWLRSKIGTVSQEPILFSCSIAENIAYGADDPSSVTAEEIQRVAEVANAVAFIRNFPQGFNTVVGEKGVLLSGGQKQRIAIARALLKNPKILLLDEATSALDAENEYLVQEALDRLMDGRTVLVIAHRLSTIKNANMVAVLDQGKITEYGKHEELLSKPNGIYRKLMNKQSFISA
UniProt P78536: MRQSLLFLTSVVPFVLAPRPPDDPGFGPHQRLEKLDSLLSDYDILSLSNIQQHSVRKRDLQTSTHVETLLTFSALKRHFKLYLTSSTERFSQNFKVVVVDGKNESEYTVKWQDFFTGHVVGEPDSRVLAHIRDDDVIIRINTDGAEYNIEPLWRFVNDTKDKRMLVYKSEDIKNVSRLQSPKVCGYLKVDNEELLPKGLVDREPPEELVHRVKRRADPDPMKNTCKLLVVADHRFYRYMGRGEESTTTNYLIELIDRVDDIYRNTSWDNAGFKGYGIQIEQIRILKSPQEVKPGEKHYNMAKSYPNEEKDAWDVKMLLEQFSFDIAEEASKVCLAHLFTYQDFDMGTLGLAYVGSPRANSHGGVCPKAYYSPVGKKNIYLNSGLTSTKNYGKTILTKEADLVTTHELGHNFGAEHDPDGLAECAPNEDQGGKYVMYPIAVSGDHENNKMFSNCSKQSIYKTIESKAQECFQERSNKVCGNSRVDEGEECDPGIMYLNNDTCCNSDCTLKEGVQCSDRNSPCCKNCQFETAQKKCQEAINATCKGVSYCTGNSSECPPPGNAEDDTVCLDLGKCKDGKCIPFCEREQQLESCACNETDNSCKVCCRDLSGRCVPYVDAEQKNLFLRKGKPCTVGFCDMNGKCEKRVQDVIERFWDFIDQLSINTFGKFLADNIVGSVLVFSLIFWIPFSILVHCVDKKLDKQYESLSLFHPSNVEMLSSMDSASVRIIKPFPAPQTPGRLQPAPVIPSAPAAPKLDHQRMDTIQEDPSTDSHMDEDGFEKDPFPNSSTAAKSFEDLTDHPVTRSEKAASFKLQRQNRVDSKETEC
UniProt O14639: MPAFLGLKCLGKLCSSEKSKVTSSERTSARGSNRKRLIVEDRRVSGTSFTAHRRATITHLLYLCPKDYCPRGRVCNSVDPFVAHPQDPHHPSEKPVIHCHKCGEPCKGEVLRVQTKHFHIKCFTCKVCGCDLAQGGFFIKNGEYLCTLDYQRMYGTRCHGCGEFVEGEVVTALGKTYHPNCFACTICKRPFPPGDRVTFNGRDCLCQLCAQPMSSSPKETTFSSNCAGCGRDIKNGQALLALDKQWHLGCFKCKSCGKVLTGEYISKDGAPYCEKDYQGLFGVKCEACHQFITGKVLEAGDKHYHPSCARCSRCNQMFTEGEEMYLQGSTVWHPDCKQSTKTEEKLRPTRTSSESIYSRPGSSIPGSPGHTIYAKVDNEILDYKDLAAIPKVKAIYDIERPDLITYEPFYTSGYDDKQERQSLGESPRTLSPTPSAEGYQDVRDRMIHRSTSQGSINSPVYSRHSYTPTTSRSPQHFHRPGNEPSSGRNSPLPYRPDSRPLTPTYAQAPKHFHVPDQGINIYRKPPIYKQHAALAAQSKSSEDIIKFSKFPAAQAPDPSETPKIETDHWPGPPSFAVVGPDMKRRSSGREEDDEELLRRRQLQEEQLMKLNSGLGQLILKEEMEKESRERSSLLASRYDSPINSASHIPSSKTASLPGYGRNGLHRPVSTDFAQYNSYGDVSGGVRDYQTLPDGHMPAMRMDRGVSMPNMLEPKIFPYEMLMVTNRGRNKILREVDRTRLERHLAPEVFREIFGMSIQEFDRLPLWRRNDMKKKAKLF
UniProt P55265: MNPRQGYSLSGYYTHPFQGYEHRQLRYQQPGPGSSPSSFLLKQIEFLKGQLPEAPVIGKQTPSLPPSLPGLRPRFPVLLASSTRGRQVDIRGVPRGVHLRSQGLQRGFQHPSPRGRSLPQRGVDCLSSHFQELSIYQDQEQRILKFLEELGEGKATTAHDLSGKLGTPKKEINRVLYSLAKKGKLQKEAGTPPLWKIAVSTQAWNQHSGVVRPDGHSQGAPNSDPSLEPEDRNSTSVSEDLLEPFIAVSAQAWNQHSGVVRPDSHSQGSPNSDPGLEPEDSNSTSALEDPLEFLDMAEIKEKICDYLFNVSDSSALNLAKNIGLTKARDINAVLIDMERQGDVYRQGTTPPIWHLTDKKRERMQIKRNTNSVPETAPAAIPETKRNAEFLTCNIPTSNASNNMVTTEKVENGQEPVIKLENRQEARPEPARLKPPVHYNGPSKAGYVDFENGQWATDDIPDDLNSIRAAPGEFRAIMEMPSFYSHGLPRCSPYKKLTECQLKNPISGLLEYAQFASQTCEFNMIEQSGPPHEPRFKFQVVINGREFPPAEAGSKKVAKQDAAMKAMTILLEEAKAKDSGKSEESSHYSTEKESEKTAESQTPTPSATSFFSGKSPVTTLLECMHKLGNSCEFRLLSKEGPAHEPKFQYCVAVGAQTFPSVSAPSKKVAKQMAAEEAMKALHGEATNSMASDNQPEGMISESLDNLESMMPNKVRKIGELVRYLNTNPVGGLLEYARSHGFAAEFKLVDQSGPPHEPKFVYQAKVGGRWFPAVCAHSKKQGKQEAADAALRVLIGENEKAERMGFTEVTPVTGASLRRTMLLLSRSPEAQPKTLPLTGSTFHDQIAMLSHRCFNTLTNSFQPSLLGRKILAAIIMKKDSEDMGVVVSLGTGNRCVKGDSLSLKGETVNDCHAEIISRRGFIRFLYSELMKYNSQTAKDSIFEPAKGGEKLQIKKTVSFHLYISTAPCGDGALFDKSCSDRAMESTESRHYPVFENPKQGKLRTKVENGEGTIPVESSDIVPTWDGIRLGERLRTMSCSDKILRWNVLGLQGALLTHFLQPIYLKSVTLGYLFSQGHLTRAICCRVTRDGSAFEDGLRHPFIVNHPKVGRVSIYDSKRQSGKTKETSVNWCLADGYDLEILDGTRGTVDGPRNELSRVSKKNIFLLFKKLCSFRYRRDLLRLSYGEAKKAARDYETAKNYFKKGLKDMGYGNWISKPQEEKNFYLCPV
UniProt O96019, whole entry, looked up: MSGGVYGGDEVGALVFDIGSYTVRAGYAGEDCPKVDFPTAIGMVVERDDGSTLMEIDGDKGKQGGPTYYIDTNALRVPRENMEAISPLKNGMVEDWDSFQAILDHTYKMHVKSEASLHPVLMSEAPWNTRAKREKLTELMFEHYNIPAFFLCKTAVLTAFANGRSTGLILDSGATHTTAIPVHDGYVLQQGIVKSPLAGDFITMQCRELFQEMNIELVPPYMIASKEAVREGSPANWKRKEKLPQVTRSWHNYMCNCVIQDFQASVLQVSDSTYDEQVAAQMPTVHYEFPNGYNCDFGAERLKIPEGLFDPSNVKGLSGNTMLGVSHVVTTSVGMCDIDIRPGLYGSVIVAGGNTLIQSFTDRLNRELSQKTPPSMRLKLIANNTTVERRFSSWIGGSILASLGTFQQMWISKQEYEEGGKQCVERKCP
UniProt Q7Z6V5: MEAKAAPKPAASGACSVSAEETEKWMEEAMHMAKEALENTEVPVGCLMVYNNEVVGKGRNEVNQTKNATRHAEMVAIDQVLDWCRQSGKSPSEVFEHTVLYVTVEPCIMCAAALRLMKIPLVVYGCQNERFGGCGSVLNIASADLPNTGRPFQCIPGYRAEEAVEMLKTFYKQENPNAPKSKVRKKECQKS
UniProt Q9UKU7: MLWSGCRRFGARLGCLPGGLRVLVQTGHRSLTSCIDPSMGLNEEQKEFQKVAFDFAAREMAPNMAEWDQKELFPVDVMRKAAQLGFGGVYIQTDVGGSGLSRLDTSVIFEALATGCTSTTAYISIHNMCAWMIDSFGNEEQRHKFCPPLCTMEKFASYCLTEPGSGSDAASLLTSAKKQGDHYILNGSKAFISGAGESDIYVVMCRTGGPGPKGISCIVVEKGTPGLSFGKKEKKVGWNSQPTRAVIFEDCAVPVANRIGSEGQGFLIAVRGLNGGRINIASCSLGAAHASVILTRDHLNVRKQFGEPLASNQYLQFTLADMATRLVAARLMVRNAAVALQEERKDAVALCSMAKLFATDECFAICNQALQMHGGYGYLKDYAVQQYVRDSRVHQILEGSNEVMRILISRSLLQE
UniProt Q9NP58: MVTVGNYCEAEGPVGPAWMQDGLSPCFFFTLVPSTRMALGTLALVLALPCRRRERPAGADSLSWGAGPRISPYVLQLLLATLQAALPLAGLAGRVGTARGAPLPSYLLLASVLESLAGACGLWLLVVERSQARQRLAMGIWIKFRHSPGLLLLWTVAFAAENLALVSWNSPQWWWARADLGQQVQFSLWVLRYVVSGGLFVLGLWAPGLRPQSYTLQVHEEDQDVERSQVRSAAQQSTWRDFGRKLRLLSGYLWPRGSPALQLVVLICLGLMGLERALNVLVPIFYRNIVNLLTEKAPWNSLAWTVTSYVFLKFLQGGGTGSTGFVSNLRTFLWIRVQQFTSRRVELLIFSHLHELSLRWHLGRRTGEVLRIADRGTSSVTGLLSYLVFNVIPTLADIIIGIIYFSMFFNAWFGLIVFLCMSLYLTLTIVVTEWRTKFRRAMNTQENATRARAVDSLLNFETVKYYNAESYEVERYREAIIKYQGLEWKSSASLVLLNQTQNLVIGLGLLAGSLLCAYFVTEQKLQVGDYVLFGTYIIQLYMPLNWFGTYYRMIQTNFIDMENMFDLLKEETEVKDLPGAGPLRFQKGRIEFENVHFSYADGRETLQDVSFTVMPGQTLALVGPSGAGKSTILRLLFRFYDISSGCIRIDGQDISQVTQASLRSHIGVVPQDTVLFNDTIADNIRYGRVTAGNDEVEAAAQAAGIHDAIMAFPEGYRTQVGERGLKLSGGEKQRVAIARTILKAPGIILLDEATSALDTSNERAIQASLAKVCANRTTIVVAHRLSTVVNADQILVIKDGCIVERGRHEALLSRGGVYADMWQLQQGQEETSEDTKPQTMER

Columns and labels:
Experiment in all cases: log2 fold change, soluble protein after heating vs DMSO (PISA); higher = thermal stabilisation; K562 cells, 10 uM, 30 min; active = over 0.2 and 3.5 SD of the protein, either way, in both replicates (recomputed)
[1] = compound: C#Cc1cccc(Nc2ncnc3cc(OCCOC)c(OCCOC)cc23)c1 [erlotinib]
In short: (§1)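 K562 cells at 2×10^6 cells/mL were given 10 μM compound for 30 min. Aliquots then went through 3 min of heating across 48°C-58°C, were pooled, and were extracted in PBS with 0.5% NP-40 at 4°C, and the supernatant after 21,000xg for 90 min was quantified by TMTpro 16plex LC-MS/MS with channel sums equalised. Thermal stability relative to control samples, from duplicates, is given as log2 fold change.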

[2] = compound: C/C(=N\NC(=O)C1=CC(=CC=C1)S(=O)(=O)N2CCOCC2)/C3=C(C=CC(=C3)Cl)O
In short: as §1

[3] = compound: C1=CC(=C(C=C1Cl)C2=NC3=NC=CN=C3C(=N2)NC4=CC=NC=C4)F
In short: as §1

[4] = compound: C1=CC(=CC=C1C2=NC3=C(N2)C=C(C=C3)C(=O)N)OC4=CC=C(C=C4)Cl
In short: as §1

[5] = compound: C1=CC2=C(C=CC(=C2)/C=C\3/C(=O)NC(=NCC4=CC=CS4)S3)N=C1
In short: as §1

[6] = compound: C1=CC2=NC=CN=C2C=C1/C=C/3\C(=O)NC(=O)S3
In short: as §1

[7] = compound: C1=CC=C(C=C1)C2=NC(=C(N2)C3=CC=NC=C3)C4=CC(=C(C=C4)Cl)O
In short: as §1

[8] = compound: C1=CC=C2C(=C1)C3=NNC4=CC=CC(=C43)C2=O
In short: as §1

[9] = compound: C1CCN(C1)C(=O)NC2=CC=CC(=C2)NC3=NC=C(C(=N3)NCCC4=CN=CN4)Br
In short: as §1

[10] = compound: C1CN(CCC1(CC2=CC=C(C=C2)Cl)N)C3=NC=NC4=C3C=CN4
In short: as §1

Measured: log2 fold change

ABCC10 (UniProt Q5T3U5)
inactive: [1] 0.142 | [2] -0.102 | [3] 0.03 | [4] -0.027 | [5] -0.19 | [6] 0.055 | [7] -0.062 | [8] 0.198 | [9] -0.03 | [10] -0.022

ADAMTSL4 isoform 3 (UniProt Q6UY14)
inactive: [1] -0.025 | [2] -0.006 | [3] -0.245 | [4] -0.015 | [5] -0.04 | [6] -0.013 | [7] -0.012 | [8] -0.031 | [9] 0.013 | [10] -0.178

ABCB8 (UniProt Q9NUT2)
inactive: [1] 0.028 | [2] 0.035 | [3] -0.023 | [4] 0.017 | [5] 0.055 | [6] 0.071 | [7] -0.058 | [8] -0.003 | [9] -0.004 | [10] 0.036

ACACB (UniProt O00763)
inactive: [1] 0.048 | [2] -0.094 | [3] -0.212 | [4] -0.108 | [5] 0.07 | [6] -0.123 | [7] 0.132 | [8] -0.028 | [9] -0.059 | [10] -0.143

ADAM10 (UniProt O14672)
inactive: [1] -0.019 | [2] -0.019 | [3] -0.016 | [4] 0.038 | [5] -0.027 | [6] -0.01 | [7] -0.011 | [8] -0.075 | [9] -0.014 | [10] -0.002

AAMDC (UniProt Q9H7C9)
inactive: [1] -0.001 | [2] 0.052 | [3] 0.226 | [4] -0.02 | [5] 0.142 | [6] 0.062 | [7] 0.024 | [8] -0.001 | [9] -0.042 | [10] 0.016

AARS (UniProt P49588)
inactive: [1] -0.003 | [2] 0.009 | [3] 0.046 | [4] 0.002 | [5] 0.01 | [6] -0.018 | [7] 0.009 | [8] 0.009 | [9] 0.011 | [10] 0.003

ACOT9 isoform 4 (UniProt Q9Y305)
inactive: [1] -0.07 | [2] -0.033 | [3] -0.078 | [4] 0.15 | [5] 0.056 | [6] -0.084 | [7] 0.015 | [8] 0.083 | [9] -0.022 | [10] 0.013

ACSS2 isoform 2 (UniProt Q9NR19)
inactive: [1] 0.025 | [2] 0.03 | [3] 0.096 | [4] 0.056 | [5] 0.056 | [6] 0.016 | [7] 0.008 | [8] -0.01 | [9] -0.009 | [10] -0.01

ACIN1 (UniProt Q9UKV3)
inactive: [1] 0.116 | [2] -0.1 | [3] -0.033 | [4] 0.006 | [5] 0.051 | [6] 0.007 | [7] 0 | [8] -0.012 | [9] -0.041 | [10] -0.038

ABCB10 (UniProt Q9NRK6)
inactive: [1] 0.012 | [2] 0.002 | [3] 0.061 | [4] -0.019 | [5] 0.017 | [6] 0.02 | [7] 0.009 | [8] 0.002 | [9] 0.011 | [10] 0.033

ABCC4 (UniProt O15439)
inactive: [1] 0.041 | [2] 0.044 | [3] 0.096 | [4] 0.026 | [5] 0.002 | [6] 0.027 | [7] 0.023 | [8] -0.019 | [9] -0.009 | [10] 0.063

ADAM17 (UniProt P78536)
inactive: [1] 0.007 | [2] -0.008 | [3] -0.015 | [4] 0.02 | [5] 0.013 | [6] 0.037 | [7] -0.054 | [8] -0.046 | [9] -0.027 | [10] 0.034

ACTR6 (UniProt Q9GZN1)
inactive: [1] 0.014 | [2] 0.026 | [3] 0.059 | [4] 0.018 | [5] 0.022 | [6] -0.133 | [7] -0.133 | [8] -0.045 | [9] -0.049 | [10] 0.023

ABLIM1 (UniProt O14639)
inactive: [1] 0.293 | [2] -0.026 | [3] -0.011 | [4] -0.295 | [5] 0.054 | [6] -0.114 | [7] 0.038 | [8] 0.001 | [9] -0.091 | [10] -0.002

ABI2 (UniProt Q9NYB9)
inactive: [1] -0.04 | [2] 0.022 | [3] 0.017 | [4] -0.025 | [5] 0.016 | [6] -0.135 | [7] 0.007 | [8] -0.025 | [9] 0.027 | [10] -0.014

ADAR isoform 4 (UniProt P55265)
inactive: [1] -0.119 | [2] -0.223 | [3] -0.375 | [4] 0.194 | [5] 0.308 | [6] -0.039 | [7] 0.109 | [8] -0.174 | [9] -0.082 | [10] -0.151

ABRAXAS2 (UniProt Q15018)
inactive: [1] 0.011 | [2] -0.021 | [3] 0.041 | [4] 0.008 | [5] 0.028 | [6] 0.015 | [7] -0.008 | [8] -0.006 | [9] 0.01 | [10] 0.04

Quoted at random: two records from the list.
ACIN1 (UniProt Q9UKV3)
inactive: [1] 0.116 | [2] -0.1 | [3] -0.033 | [4] 0.006 | [5] 0.051 | [6] 0.007 | [7] 0 | [8] -0.012 | [9] -0.041 | [10] -0.038

ADAM10 (UniProt O14672)
inactive: [1] -0.019 | [2] -0.019 | [3] -0.016 | [4] 0.038 | [5] -0.027 | [6] -0.01 | [7] -0.011 | [8] -0.075 | [9] -0.014 | [10] -0.002

The list continues:

ACTL6A (UniProt O96019)
inactive: [1] -0.01 | [2] 0.004 | [3] 0 | [4] 0.057 | [5] 0.043 | [6] 0.015 | [7] 0.006 | [8] 0.016 | [9] -0.03 | [10] 0.01

A2M (UniProt P01023)
inactive: [1] -0.304 | [2] -0.134 | [3] 0.065 | [4] 0.176 | [5] 0.076 | [6] -0.074 | [7] 0.052 | [8] -0.054 | [9] 0.179 | [10] 0.245

ACTN4 (UniProt O43707)
inactive: [1] -0.025 | [2] -0.018 | [3] -0.042 | [4] -0.002 | [5] 0.009 | [6] 0.02 | [7] -0.076 | [8] 0 | [9] 0.005 | [10] 0.017

ACADM isoform 2 (UniProt P11310)
inactive: [1] -0.015 | [2] 0.014 | [3] 0.013 | [4] 0.149 | [5] 0.044 | [6] 0.002 | [7] 0.059 | [8] -0.001 | [9] 0.008 | [10] 0.067

AAK1, A0A096LP25
inactive: [1] 0.043 | [2] -0.092 | [3] -0.027 | [4] 0.02 | [5] 0.234 | [6] 0.107 | [7] 0.017 | [8] 0.254 | [9] 0.255 | [10] 0

ADAT2 (UniProt Q7Z6V5)
inactive: [1] 0.06 | [2] 0.131 | [3] 0.057 | [4] 0.009 | [5] -0.022 | [6] 0.002 | [7] 0.023 | [8] 0.089 | [9] 0.074 | [10] 0.072

ABCF2 isoform 2 (UniProt Q9UG63)
inactive: [1] -0.005 | [2] -0.007 | [3] -0.023 | [4] 0.011 | [5] 0.02 | [6] -0.005 | [7] -0.039 | [8] -0.008 | [9] 0.017 | [10] -0.011

ACAA1 (UniProt P09110)
inactive: [1] -0.032 | [2] 0.008 | [3] 0.013 | [4] 0.038 | [5] -0.059 | [6] -0.016 | [7] -0.033 | [8] -0.021 | [9] -0.011 | [10] 0.022

ACBD3 (UniProt Q9H3P7)
inactive: [1] 0.013 | [2] 0.058 | [3] 0.046 | [4] -0.007 | [5] 0.01 | [6] -0.026 | [7] 0.062 | [8] 0.08 | [9] -0.051 | [10] 0.129

ACAD8 (UniProt Q9UKU7)
inactive: [1] 0.028 | [2] 0.014 | [3] 0.017 | [4] -0.017 | [5] -0.072 | [6] 0.148 | [7] -0.042 | [8] 0.005 | [9] -0.066 | [10] -0.001

ABCB6 (UniProt Q9NP58)
inactive: [1] 0.017 | [2] 0.045 | [3] 0.029 | [4] 0.037 | [5] -0.003 | [6] 0.069 | [7] 0.087 | [8] -0.056 | [9] -0.057 | [10] 0.023
